Results reported in paper PMC10997842.
These are yes or no findings as the source states them, for the method shown. Binding seen in cells or lysates may run through a third protein. Some entries that bind do so weakly or less than the wild type.

The chains behind the UniProt entries cited, without tags or fusion partners.
UniProt Q07866: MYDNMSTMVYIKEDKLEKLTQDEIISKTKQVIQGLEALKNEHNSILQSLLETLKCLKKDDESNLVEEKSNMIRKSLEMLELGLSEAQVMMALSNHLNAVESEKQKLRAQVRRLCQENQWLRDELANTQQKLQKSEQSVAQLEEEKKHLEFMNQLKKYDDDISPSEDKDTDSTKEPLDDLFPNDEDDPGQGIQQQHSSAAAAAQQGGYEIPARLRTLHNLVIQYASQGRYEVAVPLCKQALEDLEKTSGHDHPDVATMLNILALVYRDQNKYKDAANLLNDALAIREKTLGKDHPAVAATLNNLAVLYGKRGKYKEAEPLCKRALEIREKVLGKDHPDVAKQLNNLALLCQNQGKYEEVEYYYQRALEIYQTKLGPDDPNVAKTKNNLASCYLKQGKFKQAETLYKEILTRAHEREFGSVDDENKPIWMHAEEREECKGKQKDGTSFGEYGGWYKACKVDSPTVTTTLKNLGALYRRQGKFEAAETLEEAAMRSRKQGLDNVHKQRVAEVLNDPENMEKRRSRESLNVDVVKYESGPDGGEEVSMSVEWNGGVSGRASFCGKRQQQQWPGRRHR
UniProt Q14203: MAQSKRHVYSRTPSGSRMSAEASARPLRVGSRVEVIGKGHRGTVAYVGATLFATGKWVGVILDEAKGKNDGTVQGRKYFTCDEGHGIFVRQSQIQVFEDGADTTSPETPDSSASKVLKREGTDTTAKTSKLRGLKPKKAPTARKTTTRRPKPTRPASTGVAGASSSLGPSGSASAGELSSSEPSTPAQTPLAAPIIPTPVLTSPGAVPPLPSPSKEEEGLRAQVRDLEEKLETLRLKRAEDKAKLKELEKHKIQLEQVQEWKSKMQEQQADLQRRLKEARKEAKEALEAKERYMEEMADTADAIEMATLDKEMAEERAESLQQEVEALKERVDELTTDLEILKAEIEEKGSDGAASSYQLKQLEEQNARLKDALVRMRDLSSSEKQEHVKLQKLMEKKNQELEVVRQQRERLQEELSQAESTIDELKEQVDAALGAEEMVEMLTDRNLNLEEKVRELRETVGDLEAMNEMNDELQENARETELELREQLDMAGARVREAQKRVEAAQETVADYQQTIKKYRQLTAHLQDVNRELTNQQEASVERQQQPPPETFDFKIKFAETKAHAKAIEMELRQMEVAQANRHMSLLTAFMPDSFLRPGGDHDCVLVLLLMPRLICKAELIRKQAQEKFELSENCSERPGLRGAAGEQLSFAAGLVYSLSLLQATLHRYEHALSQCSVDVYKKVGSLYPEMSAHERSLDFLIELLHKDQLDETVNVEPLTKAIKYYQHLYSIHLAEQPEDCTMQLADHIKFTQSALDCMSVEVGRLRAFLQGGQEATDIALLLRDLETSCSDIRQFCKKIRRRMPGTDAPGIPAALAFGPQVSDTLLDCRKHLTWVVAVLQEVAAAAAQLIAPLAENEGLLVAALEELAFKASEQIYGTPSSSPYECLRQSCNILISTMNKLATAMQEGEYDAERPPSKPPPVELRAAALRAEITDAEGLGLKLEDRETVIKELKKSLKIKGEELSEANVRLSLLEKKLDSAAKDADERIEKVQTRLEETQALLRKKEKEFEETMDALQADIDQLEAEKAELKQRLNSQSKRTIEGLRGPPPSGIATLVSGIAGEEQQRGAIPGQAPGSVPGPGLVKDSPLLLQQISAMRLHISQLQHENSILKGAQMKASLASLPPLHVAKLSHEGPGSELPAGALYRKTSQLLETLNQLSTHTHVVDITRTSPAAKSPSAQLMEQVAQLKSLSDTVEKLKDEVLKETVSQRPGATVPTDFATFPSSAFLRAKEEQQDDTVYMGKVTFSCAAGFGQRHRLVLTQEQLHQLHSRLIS

Assays:
[1] = target: kinesin light chain 1 (KLC1) (human (endogenous in SH-SY5Y)) (UniProt Q07866); test: co-IP; lysates of differentiated SH-SY5Y cells transduced with APPwt or APPswe; IP with antibody against DCTN1 or KLC1, blots for APP, DCTN1, KLC1
[2] = target: dynactin-1 (DCTN1) (human (endogenous in SH-SY5Y and in hiPSC-derived hNPCs)) (UniProt Q14203); test: as above
[3] = target: endogenous amyloid precursor protein of neural progenitors from a healthy subject (human (endogenous in hiPSC-derived hNPCs)) (UniProt P05067); test: co-IP; lysates of hNPCs differentiated from hiPSCs of a healthy subject or a FAD APPswe patient; IP with an antibody against APP or an IgG isotype control, blots for APP and DCTN1
[4] = target: endogenous amyloid precursor protein carrying the Swedish variant, of neural progenitors from a FAD patient (human (endogenous in hiPSC-derived hNPCs)) (UniProt P05067); test: as above
[5] = target: WT amyloid precursor protein linked to GFP (APPwt-GFP) (UniProt P05067); test: co-IP; lysates of 20 DIV differentiated SH-SY5Y cells transduced with tagged APPwt or APPswe; IP against the GFP or tRFP tag of APP (magnetic beads), blots for APP, DCTN1, KLC1; also after DMSO or 10 or 40 uM beta-site APP-cleaving enzyme inhibitor
[6] = target: APP harboring the Swedish KM670/671NL FAD variant linked to turbo red fluorescent protein (APPswe-tRFP) (UniProt P05067); test: as above
[7] = target: WT amyloid precursor protein linked to turbo red fluorescent protein (APPwt-tRFP) (UniProt P05067); test: as above

binding [1] | binding [2] | binding [3] | binding [4] | binding [5] | binding [6] | binding [7] | Substance
binds | binds |  |  |  |  |  | APP harboring the Swedish KM670/671NL FAD variant linked to turbo red fluorescent protein (APPswe-tRFP) (from UniProt P05067 18-770)
binds | binds |  |  |  |  |  | WT amyloid precursor protein linked to GFP (APPwt-GFP) (from UniProt P05067 18-770)
 |  | binds | binds | binds | binds | binds | dynactin-1 (DCTN1) (from UniProt Q14203 1-1278)
 |  |  |  | binds | binds | binds | kinesin light chain 1 (KLC1) (from UniProt Q07866 1-573)
